Measurements as given in patent US12590123B2 (Washington University, priority 2019, dated 2026).

Test: general procedure: hybrid (solid and solution phase) peptide synthesis; Fmoc-L-Lys(Boc)-Wang resin; HBTU, iPr2NEt
Settings: whole synthesis, overall, scale of the general procedure 0.68 mmol

For “2-(((3S,6S,14S)-6-acetamido-3-isobutyl-2,5,8-trioxo-1,4,9-triazacyclotetradecane-14-carbonyl)-L-arginyl)-N—((R)-1-amino-3-methyl-1-oxobutan-2-yl)benzo[d]thiazole-6-carboxamide”, which isolated yield is on record?
Its isolated yield is 50%.

For “(2S,5S,13S)-13-acetamido-N—((S)-1-(benzo[d]thiazol-2-yl)-5-guanidino-1-oxopentan-2-yl)-2-isobutyl-3,7,14-trioxo-1,4,8-triazacyclotetradecane-5-carboxamide”, which isolated yield is on record?
Its isolated yield is 32%.

For “(2S,5S,13S)-13-amino-N—((S)-1-(benzo[d]thiazol-2-yl)-5-guanidino-1-oxopentan-2-yl)-2-isobutyl-3,7,14-trioxo-1,4,8-triazacyclotetradecane-5-carboxamide”, which isolated yield is on record?
The isolated yield was 32%.

For “(2S,5S,14S)-14-acetamido-N—((S)-1-(benzo[d]thiazol-2-yl)-5-guanidino-1-oxopentan-2-yl)-2-(3-guanidinopropyl)-3,8,15-trioxo-1,4,9-triazacyclopentadecane-5-carboxamide”, which isolated yield is on record?
The isolated yield was 35%.

With “(2S,5S,14S)-14-acetamido-N—((S)-1-(benzo[d]thiazol-2-yl)-5-guanidino-1-oxopentan-2-yl)-2-isobutyl-3,8,15-trioxo-1,4,9-triazacyclopentadecane-5-carboxamide” as the substance, how does the isolated yield read?
Its isolated yield is 32%.

With “(2S,5S,14S)-14-acetamido-N—((S)-1-(benzo[d]thiazol-2-yl)-5-guanidino-1-oxopentan-2-yl)-2-isobutyl-3,11,15-trioxo-1,4,10-triazacyclopentadecane-5-carboxamide” as the substance, how does the isolated yield read?
The isolated yield was 34%.

With “(3S,6S,14S)-6-acetamido-3-(2-amino-2-oxoethyl)-N—((S)-1-(benzo[d]thiazol-2-yl)-5-guanidino-1-oxopentan-2-yl)-2,5,8-trioxo-1,4,9-triazacyclotetradecane-14-carboxamide” as the substance, how does the isolated yield read?
The isolated yield was 41%.

Which isolated yield does the source give for “(3S,6S,14S)-6-acetamido-3-(3-amino-3-oxopropyl)-N—((S)-1-(benzo[d]thiazol-2-yl)-5-guanidino-1-oxopentan-2-yl)-2,5,8-trioxo-1,4,9-triazacyclotetradecane-14-carboxamide” here?
The isolated yield was 30%.

With “(3S,6S,14S)-6-acetamido-N—((S)-1-(benzo[d]thiazol-2-yl)-5-guanidino-1-oxopentan-2-yl)-3-(2-(methylthio)ethyl)-2,5,8-trioxo-1,4,9-triazacyclotetradecane-14-carboxamide” as the substance, how does the isolated yield read?
The isolated yield was 45%.

With “(3S,6S,14S)-6-acetamido-N—((S)-1-(benzo[d]thiazol-2-yl)-5-guanidino-1-oxopentan-2-yl)-3-(4-hydroxybenzyl)-2,5,8-trioxo-1,4,9-triazacyclotetradecane-14-carboxamide” as the substance, how does the isolated yield read?
The isolated yield was 38%.

For “(3S,6S,14S)-6-acetamido-N—((S)-1-(benzo[d]thiazol-2-yl)-5-guanidino-1-oxopentan-2-yl)-3-((S)-1-hydroxyethyl)-2,5,8-trioxo-1,4,9-triazacyclotetradecane-14-carboxamide”, which isolated yield is on record?
Its isolated yield is 35%.

Which isolated yield does the source give for “(3S,6S,14S)-6-acetamido-N—((S)-1-(benzo[d]thiazol-2-yl)-5-guanidino-1-oxopentan-2-yl)-3-benzyl-2,5,8-trioxo-1,4,9-triazacyclotetradecane-14-carboxamide” here?
The isolated yield was 45%.

With “(3S,6S,14S)-6-acetamido-N—((S)-1-(benzo[d]thiazol-2-yl)-5-guanidino-1-oxopentan-2-yl)-3-isobutyl-2,5,8-trioxo-1,4,9-triazacyclotetradecane-14-carboxamide” as the substance, how does the isolated yield read?
The isolated yield was 55%.

For “(3S,6S,14S)-6-acetamido-N—((S)-1-(benzo[d]thiazol-2-yl)-5-guanidino-1-oxopentan-2-yl)-3-isopropyl-2,5,8-trioxo-1,4,9-triazacyclotetradecane-14-carboxamide”, which isolated yield is on record?
Its isolated yield is 45%.

Which isolated yield does the source give for “(3S,6S,14S)-6-acetamido-N—((S)-1-(benzo[d]thiazol-2-yl)-5-guanidino-1-oxopentan-2-yl)-3-methyl-2,5,8-trioxo-1,4,9-triazacyclotetradecane-14-carboxamide” here?
The isolated yield was 45%.

With “(3S,6S,14S)-6-acetamido-N—((S)-5-guanidino-1-oxo-1-(thiazol-2-yl)pentan-2-yl)-3-isobutyl-2,5,8-trioxo-1,4,9-triazacyclotetradecane-14-carboxamide” as the substance, how does the isolated yield read?
Its isolated yield is 55%.

Which isolated yield does the source give for “(3S,6S,14S)-6-amino-N—((S)-1-(benzo[d]thiazol-2-yl)-5-guanidino-1-oxopentan-2-yl)-3-isobutyl-2,5,8-trioxo-1,4,9-triazacyclotetradecane-14-carboxamide” here?
Its isolated yield is 30%.

Which isolated yield does the source give for “(6S,14S)-6-acetamido-N—((S)-1-(benzo[d]thiazol-2-yl)-5-guanidino-1-oxopentan-2-yl)-2,5,8-trioxo-1,4,9-triazacyclotetradecane-14-carboxamide” here?
The isolated yield was 42%.
